{"source": "paper PMC2724103", "biological_target": "T1, GST-GAP (SptP GAP domain, residues 162-290) (Salmonella enterica serovar Typhimurium) (UniProt P74873)", "T1 sequence": "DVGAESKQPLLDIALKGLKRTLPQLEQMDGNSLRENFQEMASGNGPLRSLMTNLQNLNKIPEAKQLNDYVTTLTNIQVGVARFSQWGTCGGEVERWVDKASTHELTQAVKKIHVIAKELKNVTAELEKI", "assay": "pull-down; GST fusions on glutathione Sepharose 4B beads in binding buffer (20 mM Tris-HCl pH 7.4, 150 mM NaCl, 1 mM MgCl2, 0.5 mM ATP, 1 mM GTP, 0.5 mM DTT), incubated with equimolar His-tagged VCP (RT, 10 min); washed; eluted with 1 M NaCl, then 10 mM reduced glutathione; Coomassie SDS-PAGE; both purified", "note": "Results are given in words; binding and its absence hold for the method and conditions named. Sequences can lack the tags named with a protein.", "data": [{"substance": "His-tagged VCP (VCP^WT), recombinant (rat)", "values": [{"measurement": "binding", "value": "no binding"}]}]}
